Results as given in patent US20060235215A1.
These are yes or no findings as the source states them, for the method shown. Some binding calls cover weakened binding; strength is not graded here.

Chains of the proteins cited; added tags and fusions are not shown. Lines headed by an entry give the natural chain unless they say otherwise; changes in a name come on top.
UniProt Q0JL44: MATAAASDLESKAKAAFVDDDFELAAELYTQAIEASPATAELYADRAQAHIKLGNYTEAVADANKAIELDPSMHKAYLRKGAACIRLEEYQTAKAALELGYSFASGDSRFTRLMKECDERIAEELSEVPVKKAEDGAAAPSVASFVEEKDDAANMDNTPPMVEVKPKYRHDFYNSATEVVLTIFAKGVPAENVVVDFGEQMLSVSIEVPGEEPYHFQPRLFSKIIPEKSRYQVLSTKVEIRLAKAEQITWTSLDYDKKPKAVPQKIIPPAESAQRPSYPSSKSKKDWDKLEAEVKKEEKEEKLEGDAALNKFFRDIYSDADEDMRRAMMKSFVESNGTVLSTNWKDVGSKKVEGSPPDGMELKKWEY

T1: Hypothetical Protein 006819-2510, Similar to Hemerocallis Senescence-Related Protein 5, bait fragment aa 1-273 (Oryza sativa)
T1 sequence: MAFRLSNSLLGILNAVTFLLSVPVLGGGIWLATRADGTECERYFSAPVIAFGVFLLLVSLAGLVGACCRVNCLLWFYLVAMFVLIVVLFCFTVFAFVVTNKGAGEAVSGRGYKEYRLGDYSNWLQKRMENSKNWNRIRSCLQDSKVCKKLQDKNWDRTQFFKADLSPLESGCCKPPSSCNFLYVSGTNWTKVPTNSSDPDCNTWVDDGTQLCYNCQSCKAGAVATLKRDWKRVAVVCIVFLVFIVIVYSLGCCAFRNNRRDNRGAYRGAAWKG

T2: Hypothetical Protein 006819-2510, Similar to Hemerocallis Senescence-Related Protein 5, bait fragment aa 1-150 (Oryza sativa)
T2 sequence: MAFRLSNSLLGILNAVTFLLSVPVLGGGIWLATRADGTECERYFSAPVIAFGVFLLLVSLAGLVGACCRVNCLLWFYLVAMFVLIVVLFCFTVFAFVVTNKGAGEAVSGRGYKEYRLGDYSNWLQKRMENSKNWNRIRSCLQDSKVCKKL

B1: O. sativa Calreticulin Precursor, prey clone aa 283-301 (peptide)
chain: KGPWKQKKIKNPNYQGKWK
B2: Oryza sativa Low Temperature-Induced Protein 5, prey clone aa 29-60 (peptide)
chain: GEHHKKDGEHKEGVVEKIKDKITGDHGDGGEH
B3: O. sativa DEHYDRIN RAB 16B, prey clone aa 147-164 (peptide)
chain: GEKKGFMDKIKEKLPGQH
B4: RNA binding domain protein PN23914, prey clone aa 1-263 (protein)
chain: MEGGGEVGWYVLGPNQEHVGPYALSELREHFANGYISESSMLWAEGRSEWMPLSSIPDLLAVVTKKDQPDEGIEDDFDKFQKEVIEAEAEVEASTDKAADNDINQEHGADDPDDRPATPPDGEDEFTDDDGTVYKWDRVLRAWVPQDDLEGKNDNYEVEDMTFAHEEEVFQAPDIAGSTTLEENNVSAEIEIKEPPKVEKRAHKKRKSSEKPADKKEAYKPPDSWVDLKVNTHVYVTGLPDDVTAEEIVEVFSKCGIIKEDPE

Experiments:
Test in all cases: yeast two-hybrid
[1] = molecular target: T1, Hypothetical Protein 006819-2510, Similar to Hemerocallis Senescence-Related Protein 5, bait fragment aa 1-273 (Oryza sativa)
[2] = molecular target: T2, Hypothetical Protein 006819-2510, Similar to Hemerocallis Senescence-Related Protein 5, bait fragment aa 1-150 (Oryza sativa)
[3] = molecular target: OsSGT1, bait fragment aa 200-368 (Oryza sativa) (UniProt Q0JL44)

Binder	binding [1]	further results
B1	binds	–
B2	–	binding [2]: binds
B3	binds	–
B4	–	binding [3]: binds
